Amino acid sequences for entries named in this document (tags omitted). A change or cut given only in a name is not applied to a line headed by its entry.
UniProt Q9UHD9, whole entry, looked up: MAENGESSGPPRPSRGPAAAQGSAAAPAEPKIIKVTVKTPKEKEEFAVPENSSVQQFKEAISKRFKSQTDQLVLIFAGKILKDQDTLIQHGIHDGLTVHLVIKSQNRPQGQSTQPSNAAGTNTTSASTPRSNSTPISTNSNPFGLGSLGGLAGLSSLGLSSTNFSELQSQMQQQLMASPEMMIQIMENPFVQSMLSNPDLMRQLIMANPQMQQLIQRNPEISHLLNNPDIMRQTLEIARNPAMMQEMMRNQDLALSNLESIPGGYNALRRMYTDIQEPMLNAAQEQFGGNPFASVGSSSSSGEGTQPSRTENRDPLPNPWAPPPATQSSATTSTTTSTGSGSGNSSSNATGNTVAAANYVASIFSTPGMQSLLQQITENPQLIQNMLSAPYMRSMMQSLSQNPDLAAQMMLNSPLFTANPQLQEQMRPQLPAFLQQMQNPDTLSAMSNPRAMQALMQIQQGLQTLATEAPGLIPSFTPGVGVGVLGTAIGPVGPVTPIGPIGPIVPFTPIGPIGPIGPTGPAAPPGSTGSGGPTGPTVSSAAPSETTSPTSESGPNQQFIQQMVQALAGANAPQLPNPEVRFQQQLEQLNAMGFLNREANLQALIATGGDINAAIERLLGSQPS
UniProt Q9NVA1: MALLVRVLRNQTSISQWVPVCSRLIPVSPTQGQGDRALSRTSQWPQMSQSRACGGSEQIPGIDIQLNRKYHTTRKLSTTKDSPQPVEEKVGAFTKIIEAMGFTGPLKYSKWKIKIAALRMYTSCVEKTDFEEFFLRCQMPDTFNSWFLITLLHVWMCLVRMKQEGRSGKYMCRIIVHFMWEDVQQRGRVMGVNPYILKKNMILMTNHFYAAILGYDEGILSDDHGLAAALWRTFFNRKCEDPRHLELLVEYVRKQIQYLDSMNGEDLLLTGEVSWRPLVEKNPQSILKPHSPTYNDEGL
UniProt O94782: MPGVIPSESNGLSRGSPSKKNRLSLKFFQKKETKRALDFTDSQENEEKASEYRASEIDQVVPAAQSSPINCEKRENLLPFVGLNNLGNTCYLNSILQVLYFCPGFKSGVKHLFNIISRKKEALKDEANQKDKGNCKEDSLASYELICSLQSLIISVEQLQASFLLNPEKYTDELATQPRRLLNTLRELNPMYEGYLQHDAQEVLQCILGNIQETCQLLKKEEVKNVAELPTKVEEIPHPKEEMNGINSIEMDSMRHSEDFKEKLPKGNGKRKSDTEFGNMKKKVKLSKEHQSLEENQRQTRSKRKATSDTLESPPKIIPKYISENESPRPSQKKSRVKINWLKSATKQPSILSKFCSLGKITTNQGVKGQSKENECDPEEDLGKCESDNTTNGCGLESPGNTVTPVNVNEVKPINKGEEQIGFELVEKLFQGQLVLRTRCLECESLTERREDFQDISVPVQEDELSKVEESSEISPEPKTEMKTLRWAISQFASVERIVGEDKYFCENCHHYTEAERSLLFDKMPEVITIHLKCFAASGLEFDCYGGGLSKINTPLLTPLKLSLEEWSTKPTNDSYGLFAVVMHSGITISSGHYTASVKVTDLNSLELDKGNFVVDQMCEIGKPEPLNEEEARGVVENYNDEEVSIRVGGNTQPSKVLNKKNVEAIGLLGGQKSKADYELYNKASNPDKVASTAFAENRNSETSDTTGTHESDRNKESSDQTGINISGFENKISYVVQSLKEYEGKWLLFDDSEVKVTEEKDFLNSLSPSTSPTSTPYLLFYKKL
UniProt P15374: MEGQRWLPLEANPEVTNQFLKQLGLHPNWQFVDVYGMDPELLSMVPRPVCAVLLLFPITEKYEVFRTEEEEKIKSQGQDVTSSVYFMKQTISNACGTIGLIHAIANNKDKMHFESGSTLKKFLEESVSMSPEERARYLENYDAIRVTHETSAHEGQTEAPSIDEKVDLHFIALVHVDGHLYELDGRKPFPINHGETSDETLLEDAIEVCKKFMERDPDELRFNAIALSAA
UniProt Q8TED0: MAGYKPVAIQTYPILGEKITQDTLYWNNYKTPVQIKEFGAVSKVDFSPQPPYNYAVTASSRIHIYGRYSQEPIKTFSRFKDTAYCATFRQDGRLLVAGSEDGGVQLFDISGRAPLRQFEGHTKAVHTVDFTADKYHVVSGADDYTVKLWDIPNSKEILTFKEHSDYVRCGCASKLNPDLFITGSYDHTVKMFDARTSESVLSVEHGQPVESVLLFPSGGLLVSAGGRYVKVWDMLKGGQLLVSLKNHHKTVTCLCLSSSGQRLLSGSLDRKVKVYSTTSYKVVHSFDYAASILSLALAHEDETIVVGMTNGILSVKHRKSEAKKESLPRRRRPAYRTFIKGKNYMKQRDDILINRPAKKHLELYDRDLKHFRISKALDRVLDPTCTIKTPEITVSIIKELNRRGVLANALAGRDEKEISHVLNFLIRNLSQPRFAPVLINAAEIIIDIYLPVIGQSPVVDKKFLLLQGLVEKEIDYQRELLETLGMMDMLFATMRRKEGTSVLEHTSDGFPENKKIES
UniProt Q9BV40: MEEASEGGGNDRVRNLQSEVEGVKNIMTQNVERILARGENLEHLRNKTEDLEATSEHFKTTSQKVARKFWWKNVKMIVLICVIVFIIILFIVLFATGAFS
UniProt Q8TCY9: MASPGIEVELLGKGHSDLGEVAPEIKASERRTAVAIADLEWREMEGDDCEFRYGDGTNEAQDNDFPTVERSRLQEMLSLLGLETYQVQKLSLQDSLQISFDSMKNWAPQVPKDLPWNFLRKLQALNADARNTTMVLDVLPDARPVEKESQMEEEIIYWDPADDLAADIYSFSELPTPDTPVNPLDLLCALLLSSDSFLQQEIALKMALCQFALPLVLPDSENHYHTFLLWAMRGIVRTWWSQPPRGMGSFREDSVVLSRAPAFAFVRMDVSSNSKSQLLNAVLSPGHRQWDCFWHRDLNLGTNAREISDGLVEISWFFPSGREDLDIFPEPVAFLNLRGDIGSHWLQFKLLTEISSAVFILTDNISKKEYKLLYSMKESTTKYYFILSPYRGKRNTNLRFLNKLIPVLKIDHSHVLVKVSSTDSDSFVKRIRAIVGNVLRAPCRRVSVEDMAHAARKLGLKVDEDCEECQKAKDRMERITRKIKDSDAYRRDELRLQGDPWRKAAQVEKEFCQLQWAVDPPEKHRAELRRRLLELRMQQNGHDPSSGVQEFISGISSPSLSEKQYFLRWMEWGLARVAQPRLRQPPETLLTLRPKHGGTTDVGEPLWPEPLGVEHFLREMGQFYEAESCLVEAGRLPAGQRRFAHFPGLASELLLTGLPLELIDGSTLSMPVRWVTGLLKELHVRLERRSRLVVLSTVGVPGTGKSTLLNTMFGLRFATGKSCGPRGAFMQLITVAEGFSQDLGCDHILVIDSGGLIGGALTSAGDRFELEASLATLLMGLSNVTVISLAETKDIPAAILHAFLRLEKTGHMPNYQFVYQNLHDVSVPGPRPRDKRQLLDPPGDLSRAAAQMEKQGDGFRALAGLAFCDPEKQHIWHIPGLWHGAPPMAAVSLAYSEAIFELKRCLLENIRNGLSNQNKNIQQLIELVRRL
UniProt Q9BZL1: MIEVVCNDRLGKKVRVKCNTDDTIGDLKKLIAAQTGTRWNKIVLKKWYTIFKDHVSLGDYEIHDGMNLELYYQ
UniProt Q9P2Y5: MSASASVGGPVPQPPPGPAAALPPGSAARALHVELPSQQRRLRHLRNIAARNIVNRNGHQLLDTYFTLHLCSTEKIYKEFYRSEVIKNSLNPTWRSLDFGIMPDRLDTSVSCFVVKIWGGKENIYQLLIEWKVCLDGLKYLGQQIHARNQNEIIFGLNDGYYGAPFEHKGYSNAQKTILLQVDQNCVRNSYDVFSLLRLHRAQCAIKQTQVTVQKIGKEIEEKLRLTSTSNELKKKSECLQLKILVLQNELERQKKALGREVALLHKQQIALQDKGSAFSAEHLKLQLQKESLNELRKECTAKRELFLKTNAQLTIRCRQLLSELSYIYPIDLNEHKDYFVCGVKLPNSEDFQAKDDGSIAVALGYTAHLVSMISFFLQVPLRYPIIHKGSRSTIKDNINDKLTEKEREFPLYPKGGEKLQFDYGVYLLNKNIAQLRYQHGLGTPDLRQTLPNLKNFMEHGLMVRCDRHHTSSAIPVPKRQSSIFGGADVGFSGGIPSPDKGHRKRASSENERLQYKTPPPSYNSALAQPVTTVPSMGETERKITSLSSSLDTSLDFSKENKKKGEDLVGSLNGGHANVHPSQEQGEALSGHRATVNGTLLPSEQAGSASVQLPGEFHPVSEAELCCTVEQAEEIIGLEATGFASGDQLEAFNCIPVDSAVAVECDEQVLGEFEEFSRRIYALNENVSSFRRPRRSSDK
UniProt O94763, whole entry, looked up: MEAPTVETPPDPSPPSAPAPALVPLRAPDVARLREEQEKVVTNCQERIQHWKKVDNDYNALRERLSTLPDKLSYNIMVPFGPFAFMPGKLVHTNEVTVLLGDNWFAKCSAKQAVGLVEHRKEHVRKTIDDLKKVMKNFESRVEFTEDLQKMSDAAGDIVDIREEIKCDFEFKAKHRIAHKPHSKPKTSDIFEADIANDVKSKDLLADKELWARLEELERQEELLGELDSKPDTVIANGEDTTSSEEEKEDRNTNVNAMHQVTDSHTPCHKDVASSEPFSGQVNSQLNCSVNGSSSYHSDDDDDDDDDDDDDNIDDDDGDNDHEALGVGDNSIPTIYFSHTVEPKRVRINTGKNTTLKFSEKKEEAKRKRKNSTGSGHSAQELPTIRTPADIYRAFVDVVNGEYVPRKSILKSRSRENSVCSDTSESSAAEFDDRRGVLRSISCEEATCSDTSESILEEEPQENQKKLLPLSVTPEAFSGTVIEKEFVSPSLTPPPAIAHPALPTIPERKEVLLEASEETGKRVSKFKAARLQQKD
UniProt O75379: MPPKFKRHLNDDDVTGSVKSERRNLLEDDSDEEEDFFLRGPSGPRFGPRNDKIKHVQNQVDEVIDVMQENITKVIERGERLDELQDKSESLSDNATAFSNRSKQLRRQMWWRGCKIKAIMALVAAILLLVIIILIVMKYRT
UniProt Q92900: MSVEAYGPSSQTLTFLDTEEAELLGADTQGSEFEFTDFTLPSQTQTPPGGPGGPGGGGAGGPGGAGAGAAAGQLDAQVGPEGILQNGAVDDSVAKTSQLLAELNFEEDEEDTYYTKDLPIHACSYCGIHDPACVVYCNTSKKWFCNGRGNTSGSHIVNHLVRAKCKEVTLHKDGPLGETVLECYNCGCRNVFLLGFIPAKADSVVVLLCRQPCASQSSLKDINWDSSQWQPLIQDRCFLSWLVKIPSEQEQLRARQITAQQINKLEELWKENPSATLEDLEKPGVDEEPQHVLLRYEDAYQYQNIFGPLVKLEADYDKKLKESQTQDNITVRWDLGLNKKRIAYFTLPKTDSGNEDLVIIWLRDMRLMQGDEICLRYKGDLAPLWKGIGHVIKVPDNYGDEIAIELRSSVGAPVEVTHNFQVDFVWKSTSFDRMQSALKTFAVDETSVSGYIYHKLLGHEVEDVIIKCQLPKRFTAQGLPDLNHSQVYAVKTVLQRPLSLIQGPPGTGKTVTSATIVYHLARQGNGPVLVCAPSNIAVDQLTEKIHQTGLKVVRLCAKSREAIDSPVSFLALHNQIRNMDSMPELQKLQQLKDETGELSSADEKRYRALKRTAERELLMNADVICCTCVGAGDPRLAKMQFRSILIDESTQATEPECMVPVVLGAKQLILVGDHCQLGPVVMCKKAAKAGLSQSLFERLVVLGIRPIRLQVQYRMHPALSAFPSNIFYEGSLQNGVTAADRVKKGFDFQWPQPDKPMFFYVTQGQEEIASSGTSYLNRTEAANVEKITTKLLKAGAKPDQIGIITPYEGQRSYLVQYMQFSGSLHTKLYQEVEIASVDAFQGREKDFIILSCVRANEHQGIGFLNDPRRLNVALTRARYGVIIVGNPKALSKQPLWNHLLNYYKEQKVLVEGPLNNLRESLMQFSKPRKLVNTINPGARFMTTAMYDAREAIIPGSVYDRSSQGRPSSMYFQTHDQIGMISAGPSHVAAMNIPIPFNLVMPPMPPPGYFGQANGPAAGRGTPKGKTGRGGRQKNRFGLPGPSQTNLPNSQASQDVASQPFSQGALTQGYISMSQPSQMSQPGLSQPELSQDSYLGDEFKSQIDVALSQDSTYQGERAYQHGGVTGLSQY
UniProt Q92575: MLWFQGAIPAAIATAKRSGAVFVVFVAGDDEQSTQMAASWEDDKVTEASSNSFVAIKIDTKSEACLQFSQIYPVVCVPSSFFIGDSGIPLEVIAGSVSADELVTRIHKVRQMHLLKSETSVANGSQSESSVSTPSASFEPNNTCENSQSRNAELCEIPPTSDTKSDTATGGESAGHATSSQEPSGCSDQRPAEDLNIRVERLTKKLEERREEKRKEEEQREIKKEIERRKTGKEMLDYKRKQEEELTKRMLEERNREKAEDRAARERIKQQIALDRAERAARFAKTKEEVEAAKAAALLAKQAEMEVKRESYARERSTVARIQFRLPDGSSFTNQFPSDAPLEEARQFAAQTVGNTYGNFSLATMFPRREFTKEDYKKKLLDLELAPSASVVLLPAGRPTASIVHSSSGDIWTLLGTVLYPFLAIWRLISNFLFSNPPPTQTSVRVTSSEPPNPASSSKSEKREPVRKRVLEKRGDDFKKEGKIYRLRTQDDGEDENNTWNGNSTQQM

The list shows a part of the results.
Each target was assayed with CC1=C(C(CC(=O)N1)C2=CC=C(C=C2)C(F)(F)F)C(=O)NC3=C(C=C4C(=C3)C=NN4)F (assay: log2 fold change, soluble protein after heating vs DMSO (PISA); higher = thermal stabilisation; K562 cells, 10 uM, 30 min; active = over 0.2 and 3.5 SD of the protein, either way, in both replicates (recomputed)).
Method in brief: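 Soluble protein was defined as the supernatant after 21,000xg for 90 min. It came from K562 cells at 2×10^6 cells/mL given 10 μM compound for 30 min, heated in aliquots for 3 min across 48°C-58°C, pooled, and extracted in PBS with 0.5% NP-40 at 4°C, and was quantified by TMTpro 16plex LC-MS/MS with equalised channel sums. Thermal stability against control samples, from duplicates, is reported as log2 fold change.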
In the case of UBQLN2 (UniProt Q9UHD9), the log2 fold change is reported as inactive: -0.012. For UQCC1 (UniProt Q9NVA1), the log2 fold change was inactive: 0.01. With USP1 (UniProt O94782) the log2 fold change was inactive: 0.092. With UCK1 (UniProt Q9HA47) the log2 fold change was inactive: 0.089. For UCHL3 (UniProt P15374), the log2 fold change was inactive: 0.049. In the case of VAC14 (UniProt Q08AM6), the log2 fold change is reported as inactive: 0.009. For UTP15 (UniProt Q8TED0), the log2 fold change was inactive: 0.041. With VAMP8 (UniProt Q9BV40) the log2 fold change was inactive: 0.008. For VASP (UniProt P50552), the log2 fold change was inactive: -0.01. For URGCP (UniProt Q8TCY9), the log2 fold change was inactive: -0.008. In the case of UBL5 (UniProt Q9BZL1), the log2 fold change is reported as inactive: -0.037. With UIMC1 (UniProt Q96RL1) the log2 fold change was inactive: -0.006. For USP47 (UniProt Q96K76), the log2 fold change was inactive: 0.045. UNC13D isoform 3 (UniProt Q70J99) was tested, and the log2 fold change was inactive: -0.06. In the case of UNC45A (UniProt Q9H3U1), the log2 fold change is reported as inactive: -0.027. For UVRAG (UniProt Q9P2Y5), the log2 fold change was inactive: 0.032. URI1 isoform 4 (UniProt O94763) was tested, and the log2 fold change was inactive: -0.143. VAMP4 (UniProt O75379) was tested, and the log2 fold change was inactive: -0.024. For UQCRQ (UniProt O14949), the log2 fold change was inactive: -0.023. With UBR7 (UniProt Q8N806) the log2 fold change was inactive: -0.016. In the case of UPF1 (UniProt Q92900), the log2 fold change is reported as inactive: -0.021. In the case of UFC1 (UniProt Q9Y3C8), the log2 fold change is reported as inactive: 0.069. For UBE3C (UniProt Q15386), the log2 fold change was inactive: -0.034. UBXN4 (UniProt Q92575) was tested, and the log2 fold change was inactive: 0.007.

— the supplement of paper PMC10849652
